PubChem BioAssay AID1508597 – Cure First, 2020
Aim: 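Genes whose silencing sensitises or protects ovarian cancer cells against rucaparib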 (primary screen). System: human ovarian carcinoma lines grown from tumours: OCI-P5x (papillary serous) and OCI-C5x (clear cell). Knock-down reagent: siRNA pool against human genes, 1.25 pmol siRNA per well. Timing: 72 h or 96 h, depending on the cell culture. Challenge: rucaparib 20 µM (about IC30) or vehicle, present until read-out. Rucaparib or vehicle: Rucaparib. Cell line: OCI-P5x (serous). Detection: 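ATP luminescence measured at 72 or 96 h according to the culture, then normalised and expressed as percent viability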. Reading the numbers: viability, normalised: higher = more viable cells remaining. Rule for the call: 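a well counts as a hit if its normalised viability is under 80 percent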. Meaning of the calls: active = viability under 80%; inactive = viability 80% or more.
Shown is a random part of the about 2,100 reagents, under one of the conditions tested. 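Calls flag viability under 80% in either arm, not effects specific to rucaparib; the reference for percent is not stated.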 Not given: the 100% reference.

no.	gene knocked down	technical replicate	viability, normalised (%)	call
1	MAPK8 (GeneID 5599)	1	112	inactive
2	MAPK8 (GeneID 5599)	2	120	inactive
3	MAPK8 (GeneID 5599)	3	125	inactive
4	MORF4L2 (GeneID 9643)	1	66.4	active
5	MORF4L2 (GeneID 9643)	2	65.4	active
6	MORF4L2 (GeneID 9643)	3	74.7	active
7	CDH4 (GeneID 1002)	1	101	inactive
8	CDH4 (GeneID 1002)	2	96.9	inactive
9	CDH4 (GeneID 1002)	3	98.7	inactive
10	BRD9 (GeneID 65980)	1	71.2	active
11	BRD9 (GeneID 65980)	2	77.4	active
12	BRD9 (GeneID 65980)	3	74.4	active
13	PRMT3 (GeneID 10196)	1	51.9	active
14	PRMT3 (GeneID 10196)	2	53.3	active
15	PRMT3 (GeneID 10196)	3	61.8	active
16	ING4 (GeneID 51147)	1	51.1	active
17	ING4 (GeneID 51147)	2	63.2	active
18	ING4 (GeneID 51147)	3	45.4	active
19	SIRT2 (GeneID 22933)	1	38.7	active
20	SIRT2 (GeneID 22933)	2	51.5	active
21	SIRT2 (GeneID 22933)	3	47.5	active
22	NAP1L4 (GeneID 4676)	1	51.6	active
23	NAP1L4 (GeneID 4676)	2	52.1	active
24	NAP1L4 (GeneID 4676)	3	53.3	active
25	SUCLA2 (GeneID 8803)	1	58.3	active
26	SUCLA2 (GeneID 8803)	2	78.1	active
27	SUCLA2 (GeneID 8803)	3	82.8	inactive
28	PDIK1L (GeneID 149420)	1	76.9	active
29	PDIK1L (GeneID 149420)	2	85.2	inactive
30	PDIK1L (GeneID 149420)	3	69.6	active
31	PSIP1 (GeneID 11168)	1	51.7	active
32	PSIP1 (GeneID 11168)	2	41.1	active
33	PSIP1 (GeneID 11168)	3	53.3	active
34	RRM1 (GeneID 6240)	1	64.8	active
35	RRM1 (GeneID 6240)	2	78.3	active
36	RRM1 (GeneID 6240)	3	57.7	active
37	PALS1 (GeneID 64398)	1	122	inactive
38	PALS1 (GeneID 64398)	2	117	inactive
39	PALS1 (GeneID 64398)	3	72.3	active
40	CHD2 (GeneID 1106)	1	89.1	inactive
41	CHD2 (GeneID 1106)	2	82.9	inactive
42	CHD2 (GeneID 1106)	3	82.4	inactive
43	POU1F1 (GeneID 5449)	1	19.3	active
44	POU1F1 (GeneID 5449)	2	33.5	active
45	POU1F1 (GeneID 5449)	3	38.7	active
46	ITGA4 (GeneID 3676)	1	38	active
47	ITGA4 (GeneID 3676)	2	37.6	active
48	ITGA4 (GeneID 3676)	3	42.7	active
49	TINF2 (GeneID 26277)	1	52	active
50	TINF2 (GeneID 26277)	2	65	active
51	TINF2 (GeneID 26277)	3	53.4	active
52	BRD7P3 (GeneID 23629)	1	85.4	inactive
53	BRD7P3 (GeneID 23629)	2	107	inactive
54	BRD7P3 (GeneID 23629)	3	83.4	inactive
55	KMT2D (GeneID 8085)	1	51.9	active
56	KMT2D (GeneID 8085)	2	63	active
57	KMT2D (GeneID 8085)	3	57.7	active

3 consecutive reagents already listed, for reference:
no.	gene knocked down	technical replicate	viability, normalised (%)	call
19	SIRT2 (GeneID 22933)	1	38.7	active
20	SIRT2 (GeneID 22933)	2	51.5	active
21	SIRT2 (GeneID 22933)	3	47.5	active
